# This is one part of the list.
# The chains behind the UniProt entries cited, without tags or fusion partners.
# UniProt Q0JBA9, entry or part of it: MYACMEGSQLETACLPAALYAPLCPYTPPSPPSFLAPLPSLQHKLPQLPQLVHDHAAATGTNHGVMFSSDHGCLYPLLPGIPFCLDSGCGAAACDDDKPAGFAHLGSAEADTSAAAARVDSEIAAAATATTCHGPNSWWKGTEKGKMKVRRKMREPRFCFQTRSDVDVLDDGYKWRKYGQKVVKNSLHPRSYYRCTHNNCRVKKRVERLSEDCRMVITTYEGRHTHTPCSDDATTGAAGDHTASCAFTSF
# Molecular target: OsWRKY34 (Oryza sativa, UniProt Q0JBA9 1-250)
# Assay: protein-binding microarray (RPBM); PBS, 2% BSA, 51.3 ng/ul salmon testes DNA, 50 uM zinc acetate, 200 nM TF, 25 C, 1 h; high values mean tight binding
# Conditions: protein: recombinant; tags: N-terminal polyhistidine and DsRed monomer fusion (pET32a); label: CyDye5-dUTP incorporated in the synthesized complementary strand; 3' TTTTT single-stranded linker to array surface; dsDNA, one strand shown
# Procedure, shortened: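 A custom Agilent array was converted to double-stranded form by primer extension with Cy5-dUTP and blocked with 2% BSA. Protein at 200 nM in PBS with 2% BSA, salmon testes DNA and 50 µM zinc acetate was applied for 1 h at 25 °C, followed by washing. The proteins were polyhistidine–DsRed N-terminal fusions of transcription factors, expressed in E. coli BL21-CodonPlus and Ni–NTA-purified. The binding signal is per-feature fluorescence intensity (arbitrary units) from an Axon 4000B scanner.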
row,Sequence,binding signal
1,GTCTTATTGCTCCGATTGCTTGGTCATGTTTATTTGATTACGGAGTCACCTAGTGCAG,10500 fluorescence intensity (a.u.)
2,TCGTTGCCGTTTTCGAAGAGTGACATAGGCGGGGTGGGTGCGGAGTCACCTAGTGCAG,10200 fluorescence intensity (a.u.)
3,CTTGCCCCGCACCGCGCGCGCGCGCGCCTCTCTCGGCCACCGGAGTCACCTAGTGCAG,8490 fluorescence intensity (a.u.)
4,TTGGTCTGTTGGTGGCCGGGGCGCGGGCGCGCTTACCTGTCGGAGTCACCTAGTGCAG,9150 fluorescence intensity (a.u.)
5,ATCGAGGTTTTTTTTTTCAGCCTTTATCGTCTTCTTGCAACGGAGTCACCTAGTGCAG,9370 fluorescence intensity (a.u.)
6,TCTAATACTATGAATCTTGACAGTCTGTTGACTTTCTTTACGGAGTCACCTAGTGCAG,10600 fluorescence intensity (a.u.)
7,AAAATTTTAGTTTGAACCATCCTTGCAACTTTTTTTTTTCCGGAGTCACCTAGTGCAG,9800 fluorescence intensity (a.u.)
8,AGCAATTAAGCCTCGTGTTGTGATTGGTTGGCTGGTTGGTCGGAGTCACCTAGTGCAG,9060 fluorescence intensity (a.u.)
9,CACACACACCGATCTTTTCATTCATTCTTTTCTTTCTTTTCGGAGTCACCTAGTGCAG,18700 fluorescence intensity (a.u.)
10,TTCCTCCGTTTTCTCCGTTCGTCTTCCTCCGCTTCCGAAGCGGAGTCACCTAGTGCAG,18000 fluorescence intensity (a.u.)
11,ATATTACTCGATTTTTGTATTAGGTTGCCTTAGCAACTTTCGGAGTCACCTAGTGCAG,8070 fluorescence intensity (a.u.)
12,GGGCTTATCAGTTATCCCAGCGCTGCACCCACGCCACCACCGGAGTCACCTAGTGCAG,11000 fluorescence intensity (a.u.)
13,CACACATCAAGTTCAATTGCAACTTCTACATCCTCGGCTGCGGAGTCACCTAGTGCAG,10100 fluorescence intensity (a.u.)
14,CTCGCTTTTCTCTTTTTTGATACTGTCTCGTGGTTTCTTGCGGAGTCACCTAGTGCAG,18400 fluorescence intensity (a.u.)
15,AATCTGATACTATGGTTGTGTTTAGTTCGTGTGCCAATTTCGGAGTCACCTAGTGCAG,13100 fluorescence intensity (a.u.)
16,TCGTCTTTACAGCCAAACCACCACGCATTTTTCGTTCTGTCGGAGTCACCTAGTGCAG,8470 fluorescence intensity (a.u.)
17,TGCTCTTCAAATCGATCCCTTTATCGAATCCGCCTCGATCCGGAGTCACCTAGTGCAG,9080 fluorescence intensity (a.u.)
18,CCCCTTTCATACTCTACCTCAGCGCCTGATTTCAAAGTTTCGGAGTCACCTAGTGCAG,8500 fluorescence intensity (a.u.)
19,TTTACCGATGTTACCGTTTTCAAAATTTTGTTTTTTTTATCGGAGTCACCTAGTGCAG,9720 fluorescence intensity (a.u.)
20,AATTATTATTTATTTTGTTTGTGATTTACTTTATTATCAACGGAGTCACCTAGTGCAG,8390 fluorescence intensity (a.u.)
21,ATGCACTTGTTTTTTGTAACGCTGTAAGTTCATATCTGTCCGGAGTCACCTAGTGCAG,13100 fluorescence intensity (a.u.)

# Single values from the results shown.
# Under binding signal, AATCTGATACTATGGTTGTGTTTAGTTCGTGTGCCAATTTCGGAGTCACCTAGTGCAG is entered as 13100 fluorescence intensity (a.u.)
# Under binding signal, GTCTTATTGCTCCGATTGCTTGGTCATGTTTATTTGATTACGGAGTCACCTAGTGCAG is entered as 10500 fluorescence intensity (a.u.)

# Next part:

row,Sequence,binding signal
1,ACTTTGTTTATAGGGGTGAGGGTACGTTCGTGTGAGTGTCCGGAGTCACCTAGTGCAG,8630 fluorescence intensity (a.u.)
2,CTCTCGAGCTCACCCCGTCATCCACCTCACCCGCGCCGTCCGGAGTCACCTAGTGCAG,9420 fluorescence intensity (a.u.)
3,TCTCTTGTTGTGTTATGGAAATTTCACTCGAATCTTCTTTCGGAGTCACCTAGTGCAG,9280 fluorescence intensity (a.u.)
4,TCTCTCCTCTCTCTGCATCCTCTGCTCAGTGCTCATTCCACGGAGTCACCTAGTGCAG,10600 fluorescence intensity (a.u.)
5,ACTCTTCTTCCTTTTATTCACCCTCATGTAACAAAATTTCCGGAGTCACCTAGTGCAG,8280 fluorescence intensity (a.u.)
6,CGTGTCCTCCGCTCATTGGTTGAGTTGCGCCGCCGCCTCTCGGAGTCACCTAGTGCAG,9550 fluorescence intensity (a.u.)
7,TCTTCTTCTTTTTTCGCCATTGCTGTTGTCTGCTTCGTTCCGGAGTCACCTAGTGCAG,11600 fluorescence intensity (a.u.)
8,GGGACCCGCTTGTCATACTCTCCCACCTCTCTCTTCTCCACGGAGTCACCTAGTGCAG,10400 fluorescence intensity (a.u.)
9,CAATCATTTGCTTCTATGGCAGGCTATACACCACACTTTTCGGAGTCACCTAGTGCAG,10400 fluorescence intensity (a.u.)
10,CACCCGCCCGCCACACGCCCAAAAAACGCCCCGAAATCCCCGGAGTCACCTAGTGCAG,8970 fluorescence intensity (a.u.)
11,GTATGCCATCTTCACACCATCACAGCCGTCCATACCAGCACGGAGTCACCTAGTGCAG,15100 fluorescence intensity (a.u.)
12,CCTTGCTCTGCCACCGGTGGCCCTCCTGGCGCTTGCTCGTCGGAGTCACCTAGTGCAG,8350 fluorescence intensity (a.u.)
13,GGCCCATAATAATATGGTTTGGTCCTATCTCATACCCAACCGGAGTCACCTAGTGCAG,8200 fluorescence intensity (a.u.)
14,TTTAAAACAACTTGTATATACTCCCTCTGTCCCATAACGTCGGAGTCACCTAGTGCAG,8480 fluorescence intensity (a.u.)
15,GTGCATACTAGTATATACACCGTACTCCTCCGTATGTACTCGGAGTCACCTAGTGCAG,8430 fluorescence intensity (a.u.)
16,GGGCAAGGGGAGCGGATGGGCGGGGAGGAGGCAGGCTGCGCGGAGTCACCTAGTGCAG,11600 fluorescence intensity (a.u.)
17,TGCCTAAATTTATACTGATGGGGTGTATATATGGTGAAAACGGAGTCACCTAGTGCAG,8040 fluorescence intensity (a.u.)
18,ACGCGCGCTACATTCTCCACCTCTCCACCATTCCAAACTGCGGAGTCACCTAGTGCAG,9850 fluorescence intensity (a.u.)
19,AGGTAGTGGTGGATGGGGAGGAGGAGGAGCCTTAGGTAGTCGGAGTCACCTAGTGCAG,11300 fluorescence intensity (a.u.)
20,CGTGGTAATTTTTATTGGTAAGTGGTGGTGAAGTGGGTGACGGAGTCACCTAGTGCAG,8300 fluorescence intensity (a.u.)
21,ATGCTAATTTACCGTCTTTCTTGCAATTTTTTCCATCGCTCGGAGTCACCTAGTGCAG,13300 fluorescence intensity (a.u.)

# Reference: paper PMC7819943, “Rice protein-binding microarrays: a tool to detect cis-acting elements near promoter regions in rice”
